Reference: PubChem BioAssay AID540276 (National Center for Advancing Translational Sciences (NCATS), 2011)
Out of some 300,000 compounds screened, about 5,400 (1.8%) were called active. This list was built around the results that the source calls inconclusive (neither active nor inactive); the mix of calls is not that of the screen. Calls follow the shape of the full dose curve; tested in HEK293 cells. A potency beside an inconclusive call is a rough fit, not a confirmed value.

Assay: qHTS for inhibitors of binding or entry into cells for Marburg Virus
Conditions: Marburg virus pseudotyped entry inhibition, cell reporter; series mostly up to 37.8 µM
Potency is read from the fitted curve at half-maximal effect.

| Compound | Potency |
| --- | --- |
| CC(=O)NC1=NN(C(C)=O)C2(CCCCC2)S1 | inactive |
| COc1ccc(-c2cc(C(F)(F)F)nc(NCCc3ccccc3)n2)cc1 | inconclusive: 35.5 µM [activator, single point] |
| Cc1ccc(C)c(S(=O)(=O)N2CCN(CC(=O)Nc3ccc4c(c3)OCCO4)CC2)c1 | inactive |
| S=C(c1cn(Cc2ccccc2)c2ccccc12)N1CCOCC1 | inconclusive: 7.08 µM [inhibitor, partial curve, poor fit] |
| COc1ccc2c(c1)O[C@H](c1ccc3c(c1)OCO3)[C@@H](OC(=O)NCc1ccc3c(c1)OCO3)C2=O | inactive |
| COc1ccccc1N(CC(=O)NC1CCCC1)C(=O)CCCC(=O)Nc1ccccn1 | inconclusive: 6.31 µM [inhibitor, single point] |
| Cc1ccc(Nc2c(-c3ccccc3O)nc3cc(C)ccn23)cc1 | inconclusive: 10 µM [inhibitor, partial curve, poor fit] |
| CCn1nc(C(=O)Nc2ccccc2C)c(Cl)c1Cl | inconclusive: 4.47 µM [activator, full curve, poor fit] |
| CCNc1nc(ON=C(C)C)nc(N(C)C)n1 | inactive |
| N/C(=N\OC(=O)c1ccc(Cl)c(Cl)c1)c1cccc(CSc2ccccn2)c1 | inconclusive: 3.55 µM [activator, single point] |
| Cc1cc(C(=O)CSc2nc3ccccc3[nH]2)c(C)n1CC1CCCO1 (configuration not stated) | inconclusive: 5.62 µM [inhibitor, full curve, poor fit] |
| O=C(NN=C1C2CC3CC(C2)CC1C3)c1ccncc1 | inactive |
| CCOc1ccc(NC(=O)CN2CCN(CC(=O)Nc3ccc(OC)cc3)CC2)cc1 | inactive |
| COc1ccc(-c2ccc(SCC(=O)c3ccc(F)cc3)nn2)cc1OC | inactive |
| CCCOc1ccc(C(=O)Nc2ccc3c(c2)OCCO3)cc1 | inconclusive: 8.91 µM [inhibitor, single point] |
| Cc1ccc(NC(=O)c2ccc(COc3ccc4c(c3)CCC4)cc2)c(C)c1 | inconclusive: 5.62 µM [activator, single point] |
| CCn1c(=O)cc(OCC(=O)N2CCN(Cc3ccc4c(c3)OCO4)CC2)c2ccccc21 | inactive |
| COc1cc(C(=O)O/N=C2\C=CC(=O)C(C)=C2)cc(OC)c1OC | inconclusive: 20.6 µM [inhibitor, partial curve, poor fit] |
| Cc1ccc(C)c(OCCCN2CCc3ccccc3C2)c1 | inconclusive: 10 µM [inhibitor, partial curve, poor fit] |
| Cc1ccc2nc(N(CCCN(C)C)C(=O)CCc3ccccc3)sc2c1 | inconclusive: 35.5 µM [inhibitor, single point] |
| O=C(NNc1cccc(Cl)c1)c1cccnc1Oc1ccccc1 | inconclusive: 15.8 µM [inhibitor, partial curve, poor fit] |
| COCCCNC(=O)c1c(N)n(-c2ccc(S(N)(=O)=O)cc2)c2nc3ccccc3nc12 | inactive |
| COc1ccc(C2N(S(=O)(=O)c3ccc(C)cc3)CCN2S(=O)(=O)c2ccc(C)cc2)cc1 | inconclusive: 9.2 µM [inhibitor, partial curve] |
| COc1ccc(NC(=O)CSC2=C(C#N)C(c3ccco3)C(C(=O)Nc3nc4ccccc4s3)=C(C)N2)cc1 (configuration not stated) | inconclusive: 14.1 µM [inhibitor, single point] |

| Compound | Potency |
| --- | --- |
| O=C(CC1Sc2ccccc2NC1=O)NCc1cccc(Cl)c1 (configuration not stated) | inconclusive: 7.08 µM [inhibitor, full curve, poor fit] |
| CCOC(=O)N1CCN(C(=O)CCCCCn2c(=S)[nH]c3cc4c(cc3c2=O)OCO4)CC1 | inconclusive: 12.6 µM [inhibitor, single point] |
| Nc1cc(N)nc(SCC(=O)Nc2ccc3c(c2)OCO3)n1 | inactive |
| S=C(N/N=C1\CCc2ccccc21)NC1CCCCC1 | inconclusive: 29.1 µM [inhibitor, single point] |
| O=C(CCN1C(=O)c2ccccc2C1=O)Nc1ccc(S(=O)(=O)N2CCOCC2)cc1 | inconclusive: 4.61 µM [activator, partial curve, poor fit] |
| CC(=O)N1CCN(S(=O)(=O)c2cccc(C(=O)OCc3cccc(F)c3)c2)CC1 | inconclusive: 11.2 µM [inhibitor, partial curve, poor fit] |
| CC(C)(C)n1nnnc1C(c1ccc(Cl)cc1)N1CCCc2ccccc21 (configuration not stated) | inconclusive: 3.55 µM [inhibitor, single point] |
| Cc1ccc2oc(Nc3nc(C)cc(C)n3)nc2c1 | inactive |
| CCCCn1nc(NC(=O)c2cccc(Cl)c2)c2cc3ccc(C)cc3nc21 | inactive |
| O=C(c1ccco1)N1CCN(C(=O)c2cc(-c3ccccn3)nc3ccccc23)CC1 | inconclusive: 2.82 µM [inhibitor, partial curve, poor fit] |
| COc1cc(/C=N/NC(=S)NC2CC3C=CC2C3)cc(OC)c1OC (configuration not stated) | inconclusive: 35.5 µM [inhibitor, single point] |
| Cc1cc(SCC(=O)N/N=C/c2ccc(O)cc2O)c(C)cc1Br | inconclusive: 16.4 µM [inhibitor, partial curve, poor fit] |
| COc1ccc(CNC(=O)CSc2nnc3c(n2)[nH]c2ccc(OC)cc23)cc1 | inconclusive: 0.708 µM [inhibitor, partial curve, poor fit] |
| C/C(=N\NC(=O)c1cccc(Cl)c1)c1cccc(NC(=O)c2ccco2)c1 | inactive |
| CC(=O)Cc1nsc(NC(=O)c2cccs2)n1 | inactive |
| Cc1ccc(S(=O)(=O)CCC(=O)N2CCc3ccccc32)cc1 | inconclusive: 12.6 µM [activator, single point] |
| CN1CCCC1CCNC1C2CC3CC(C2)CC1C3 (configuration not stated) | active: 13 µM |
| CCn1c(COc2ccccc2)nc2ccccc21 | inactive |
| COc1ccccc1NC(=O)COC(=O)Cn1cnc2c1c(=O)n(C)c(=O)n2C | inactive |
| CCc1ccc2nc(/N=C(\N)NC(=O)c3ccccc3)nc(C)c2c1 | inactive |
| COc1ccc(NC(=O)c2cc([N+](=O)[O-])nn2Cc2ccccc2)c(C)c1 | inconclusive: 4.47 µM [inhibitor, full curve, poor fit] |
| COC(=O)c1ccc(CSc2nnc(Nc3ccc(OC)cc3)s2)o1 | inactive |
| COc1ccccc1C(=O)Nc1nc(-c2ccc(Br)cc2)ns1 | inactive |
| COc1ccc2c(c1)c(CC(=O)O)c(C)n2Cc1ccc(F)cc1 | inconclusive: 0.794 µM [inhibitor, full curve, poor fit] |

In the list so far, three contain an NH in an aromatic ring.

| Compound | Potency |
| --- | --- |
| Cc1cc(C(=O)CSc2nc3ccccc3[nH]2)c(C)n1CC1CCCO1 (configuration not stated) | inconclusive: 5.62 µM [inhibitor, full curve, poor fit] |
| CCOC(=O)N1CCN(C(=O)CCCCCn2c(=S)[nH]c3cc4c(cc3c2=O)OCO4)CC1 | inconclusive: 12.6 µM [inhibitor, single point] |
| COc1ccc(CNC(=O)CSc2nnc3c(n2)[nH]c2ccc(OC)cc23)cc1 | inconclusive: 0.708 µM [inhibitor, partial curve, poor fit] |

Quoted from the listing.
O=C(CC1Sc2ccccc2NC1=O)NCc1cccc(Cl)c1 (configuration not stated) – Potency: inconclusive: 7.08 µM [inhibitor, full curve, poor fit]
O=C(CCN1C(=O)c2ccccc2C1=O)Nc1ccc(S(=O)(=O)N2CCOCC2)cc1 – Potency: inconclusive: 4.61 µM [activator, partial curve, poor fit]

Next part:

| Compound | Potency |
| --- | --- |
| Cc1cc(C(=O)OCC(=O)Nc2ccc(F)cc2)c(C)o1 | inconclusive: 22.4 µM [activator, single point] |
| CCN=C1S/C(=C\c2sccc2C)C(=O)N1CC | inactive |
| COC(=O)c1cc(NC(=O)c2ccc(C)cc2)c(=O)oc1C | inactive |
| CC1(C)c2ccccc2N2CC(=O)N[C@@]21/C=C/C=C/c1ccccc1 | inconclusive: 8.91 µM [inhibitor, partial curve, poor fit] |
| Cc1ccc(Nc2nc(N)nc(N)c2S(=O)(=O)c2ccccc2)cc1 | inconclusive: 25.1 µM [inhibitor, single point] |
| C=CCOc1ccc(/C=C/C(=O)OCC(=O)NCC2CCCO2)cc1 (configuration not stated) | inconclusive: 0.631 µM [inhibitor, partial curve] |
| COc1ccc(-c2c(C)sc(NC(=O)c3ccnn3C)c2C#N)cc1 | inconclusive: 2.06 µM [inhibitor, partial curve, poor fit] |
| O=C(NNC(=O)c1cc(Cl)ccc1O)c1cccs1 | inconclusive: 17.8 µM [inhibitor, single point] |
| Cc1ccc(S(=O)(=O)N(C)CC(=O)Nc2cccc(C)n2)cc1 | inactive |
| CCc1ccc(-n2c(N3CCN(c4cccc(C)c4C)CC3)nc3ccccc3c2=O)cc1 | inactive |
| Cc1cc(C(=O)NC2CCCCC2)c(C)n1-c1ccc(F)cc1 | inconclusive: 28.2 µM [inhibitor, partial curve, poor fit] |
| S=C(NCCN1CCOCC1)Nc1ccc(Br)cc1 | inconclusive: 12.6 µM [activator, single point] |
| N#C/C(=N\Nc1ccc(Cl)c(Cl)c1)C(=O)C1CC1 | inconclusive: 6.31 µM [inhibitor, full curve, poor fit] |
| Cc1noc(NC(=O)c2ccccc2Cl)c1C#N | inconclusive: 2.82 µM [inhibitor, partial curve, poor fit] |
| COc1ccccc1N1CCN(C(=O)C2CCCN(S(=O)(=O)c3ccc4c(c3)oc(=O)n4C)C2)CC1 (configuration not stated) | inconclusive: 8.91 µM [inhibitor, partial curve, poor fit] |
| COC(=O)c1cccc(COC(=O)c2ccc(CS(=O)(=O)c3ccc(C)cc3)cc2)c1 | inconclusive: 1.16 µM [activator, full curve, poor fit] |
| COc1cc2c(cc1NC(=S)Nc1cccc(C)c1)oc1ccccc12 | inactive |
| COc1ccc(OC)c2c(=O)cc(C(=O)O)[nH]c12 | inactive |
| O=C(Nc1ccc2c(c1)OCCO2)N1CCN(c2ccc(F)cc2)CC1 | inactive |
| O=C1S/C(=C\C=C\c2ccco2)C(=O)N1c1ccc(O)cc1 | active: 20.6 µM |
| CSC1=NSC2=NC(=O)/C(=C/c3coc4ccc(O)cc4c3=O)C(=N)N12 | inactive |
| CCCc1ccc2oc(C(=O)N3CCC(COC)C3)c(C)c2c1 (configuration not stated) | inactive |
| CCOC(=O)c1c(C)oc2ccc(OCc3cc(C(=O)OC)oc3C)cc12 | inconclusive: 35.5 µM [inhibitor, single point] |
| O=C(NCc1ccccc1Cl)c1ccc(-c2ccccc2)cc1 | inactive |
